Results of single-concentration screens

Mtb cholesterol medium: 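Growth of Mycobacterium tuberculosis over 4 days (cholesterol / DPPC medium with tyloxapol); the read-out is not stated. Tested at 50 µM. Higher reads as more growth inhibition (inferred: compounds with an IC50 in retests scored well above the rest). Of about 69,000 compounds tested this way, about 370 (0.54%) reached 50% or more in at least one test.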
Mtb glucose medium: 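Phenotypic screen: M. tuberculosis growth, glucose 7H9 medium, 3 days; the read-out is not stated. Compounds at 50 µM. Direction is inferred from retests: higher values go with more growth inhibition. Size under these conditions: about 69,000 compounds, about 760 of them at 50% or above in at least one test.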

Results are given as percent effect.
How 0% and 100% were set is not recorded. Most values in the screen are low, and negative values occur.
Compounds were drawn at random from those tested, without regard to their results.
Two or more numbers in one place are separate tests of the same structure; such repeats can differ widely.

For COCc1nnn2c1CN(C(=O)c1c[nH]cn1)CCC2 the result was Mtb cholesterol medium: -9.853%; Mtb glucose medium: -0.863% and -2.048%. With CCc1nnc2n1CCN(C(=O)c1cnc3c(cnn3C(C)C)c1)C2 the screen gave Mtb cholesterol medium: 19.83%; Mtb glucose medium: 10.16%. With CC(NC(=O)NCc1cccnc1N(C)C)c1cccs1 (stereo not given) the screen gave Mtb cholesterol medium: 6.06%; Mtb glucose medium: 7.841%. With Cc1n[nH]cc1CNCC1(c2ccccc2Cl)CCOCC1 the screen gave Mtb cholesterol medium: -30.4%; Mtb glucose medium: -59.06%. CCOc1cc(C(=O)N2CCCC(n3cncn3)C2)ccc1C (stereo not given) read Mtb cholesterol medium: -7.814%; Mtb glucose medium: -1.638%. Result for CCN1CCN(C[C@H]2CC[C@@H](Cc3ccc4c(c3)OCO4)O2)CC1 was Mtb cholesterol medium: -0.2023%; Mtb glucose medium: 0.4402%. With c1ccc(-n2cc(CNC3CCc4ncnn4C3)cn2)cc1 (stereo not given) the screen gave Mtb cholesterol medium: -6.814%; Mtb glucose medium: -4.388%. Result for CN1CCN(C(=O)C2SCCc3sccc32)CC1 (stereo not given) was Mtb cholesterol medium: -15.14%; Mtb glucose medium: -15.97% and -6.394%.

Result for CC[C@@]1(O)CCN(c2ncc(Cl)cc2F)C[C@H]1O was Mtb cholesterol medium: 8.313%; Mtb glucose medium: 13.39%. CCc1ccc(CN(C)C(=O)c2cnc3c(c2)nc(N)n3CC)nc1 gave Mtb cholesterol medium: -28.94%; Mtb glucose medium: 9.864%. Result for Cn1c(C2CCCCN2C(=O)CN2CCCC2=O)nc2ccccc21 (stereo not given) was Mtb cholesterol medium: -32.31%; Mtb glucose medium: 0.4067% and -19.7%. For Cc1ccc(N2CCCN(C(=O)CCC3CCCO3)CC2)nn1 (stereo not given) the result was Mtb cholesterol medium: 17.39%; Mtb glucose medium: 25.66% and 0.2246%. Result for CC(C)(C)NC(=O)CNc1ncccn1 was Mtb cholesterol medium: -21.7%; Mtb glucose medium: -18.38%. CC(C)CN1CC(O)CN(C(=O)c2cccc(C(F)(F)F)c2)CC1=O (stereo not given) gave Mtb cholesterol medium: -27.31%; Mtb glucose medium: -22.27%. For CCn1c(CN(C)C)nnc1C1CCN(Cc2ccc(Cl)c(F)c2)CC1 the result was Mtb cholesterol medium: -5.62% and -3.062%; Mtb glucose medium: -17.69%. Result for COc1ccc(C(C(=O)O)N2CCN(C3CCCC3)CC2)cc1C (stereo not given) was Mtb cholesterol medium: 9.803%; Mtb glucose medium: 27.01%.

Cc1ccoc1C(=O)N1CCc2ccc(=O)n(CCN(C)C)c2CC1.O=C(O)C(F)(F)F read Mtb cholesterol medium: -5.35%; Mtb glucose medium: -10.01%. With O=C1CC(c2ccc(F)cc2)c2cnn(C3CCCC3)c2N1 (stereo not given) the screen gave Mtb cholesterol medium: 11.07%; Mtb glucose medium: 7.201%. COc1ccccc1Cc1cncc(N2CC(C(=O)O)C2)n1.Cl gave Mtb cholesterol medium: 1.32% and -3.885%; Mtb glucose medium: -14.45%. CCOC1CCN(C(=O)c2cnn(-c3ccccc3Cl)c2)CC1 read Mtb cholesterol medium: -13.1%; Mtb glucose medium: 12.51%. For CN1CCN(c2ncnc3c2CCN(Cc2nccn2C)CC3)CC1 the result was Mtb cholesterol medium: -6.129%; Mtb glucose medium: 0.04685% and -9.806%. CCS(=O)(=O)NCc1cccnc1N1CCCC(O)C1 (stereo not given) gave Mtb cholesterol medium: 24.96%; Mtb glucose medium: -16.68%. Result for CN(CCN1CCCCCC1)C(=O)c1cc(CN2CCC(O)CC2)on1 was Mtb cholesterol medium: -1.152%; Mtb glucose medium: -33.02% and -4.314%. CC(=O)N1CCCN(C(=O)NCc2ccc(Cl)s2)CC1 gave Mtb cholesterol medium: -21.75%; Mtb glucose medium: -24.82%.

For [H][C@@]12C[C@H](C(=O)NC3CCC3)[C@@]([H])(CN(C(=O)Nc3ccc(CC)cc3)C1)O2 the result was Mtb cholesterol medium: -24.21%; Mtb glucose medium: 5.041%. O=C(O)C(F)(F)F.O=C(O)C(F)(F)F.[H][C@@]12CN(Cc3ccc(F)cc3)C[C@]1([H])OCCN2CC1CCCO1 (stereo not given in full) gave Mtb cholesterol medium: -11.09%; Mtb glucose medium: 4.392%. For NS(=O)(=O)c1cccnc1NCc1ccco1 the result was Mtb cholesterol medium: -13.86%; Mtb glucose medium: 9.77% and 2.751%. With Cc1ccc(NC2CCN(C(=O)c3ccc(F)c(C)c3)CC2)nn1 the screen gave Mtb cholesterol medium: -20.4%; Mtb glucose medium: -19.47%. Cl.O=C1CC2(CCNCC2)C(=O)N1Cc1ccc(F)cc1 read Mtb cholesterol medium: -0.04515%; Mtb glucose medium: -8.628%. With CCc1nc2c(c(N3CCOCC3)n1)CCN(C(=O)N1CCCC1)CC2 the screen gave Mtb cholesterol medium: 14.8% and 26.02%; Mtb glucose medium: -0.8724% and -5.586%. Result for Cc1nnc(NC(=O)NCc2cccnc2N(C)C)s1 was Mtb cholesterol medium: -10.33%; Mtb glucose medium: 3.268%. Result for CC(C)COC(C)C(=O)NCc1ccc(N(C)C)cc1 (stereo not given) was Mtb cholesterol medium: 4.933%; Mtb glucose medium: 11.98%.

With CCN(Cc1cccc(C(N)=O)c1)c1ccccc1 the screen gave Mtb cholesterol medium: -21.16%; Mtb glucose medium: -43.68%.

4 of the entries, repeated:

SMILES	Mtb cholesterol medium	Mtb glucose medium
O=C1CC(c2ccc(F)cc2)c2cnn(C3CCCC3)c2N1 (stereo not given)	11.07	7.201
CN1CCN(c2ncnc3c2CCN(Cc2nccn2C)CC3)CC1	-6.129	0.04685 and -9.806
CCN1CCN(C[C@H]2CC[C@@H](Cc3ccc4c(c3)OCO4)O2)CC1	-0.2023	0.4402
COc1ccccc1Cc1cncc(N2CC(C(=O)O)C2)n1.Cl	1.32 and -3.885	-14.45

From ChEMBL document CHEMBL3988442, “University of Dundee, Small-Polar-MMV Screening Library” (2021).